Measurements: patent US20070082373A1
These are yes or no findings as the source states them, for the method shown. In cells and extracts the contact can be indirect. Some binding calls cover weakened binding; strength is not graded here.

Chains of the proteins cited; added tags and fusions are not shown.
UniProt Q99KQ4: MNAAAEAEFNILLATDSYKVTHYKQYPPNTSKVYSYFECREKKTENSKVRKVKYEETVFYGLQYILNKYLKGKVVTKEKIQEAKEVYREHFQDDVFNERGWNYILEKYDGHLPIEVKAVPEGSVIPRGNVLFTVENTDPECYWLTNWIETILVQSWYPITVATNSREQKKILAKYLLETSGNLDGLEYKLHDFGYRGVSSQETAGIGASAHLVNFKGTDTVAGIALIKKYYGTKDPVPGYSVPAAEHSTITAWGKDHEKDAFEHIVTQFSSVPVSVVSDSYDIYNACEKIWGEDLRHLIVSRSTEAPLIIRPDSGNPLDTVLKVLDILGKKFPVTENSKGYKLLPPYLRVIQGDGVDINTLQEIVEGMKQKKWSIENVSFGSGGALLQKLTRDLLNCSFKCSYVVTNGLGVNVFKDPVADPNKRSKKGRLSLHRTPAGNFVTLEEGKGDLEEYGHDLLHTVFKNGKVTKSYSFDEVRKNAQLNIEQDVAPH

Tests used:
[1] = molecular target: untagged extracellular Nampt (mouse) (UniProt Q99KQ4); experiment: co-immunoprecipitation from culture supernatants, Western blot (FIG. 16C)
[2] = molecular target: untagged extracellular Nampt (mouse) (UniProt Q99KQ4); experiment: co-immunoprecipitation from HIB-1B culture supernatants with anti-FLAG M2 beads, Western blot

binding [1]: binds | binding [2]: binds
Substance: C-terminally FLAG®-tagged mouse Nampt (Nampt-FLAG®) (from UniProt Q99KQ4 1-491) (enzyme)
